The list shows a part of the results.

The assay deals with T1, OsSMF1 (Oryza sativa, UniProt Q6ZLB0 1-436).
T1 sequence: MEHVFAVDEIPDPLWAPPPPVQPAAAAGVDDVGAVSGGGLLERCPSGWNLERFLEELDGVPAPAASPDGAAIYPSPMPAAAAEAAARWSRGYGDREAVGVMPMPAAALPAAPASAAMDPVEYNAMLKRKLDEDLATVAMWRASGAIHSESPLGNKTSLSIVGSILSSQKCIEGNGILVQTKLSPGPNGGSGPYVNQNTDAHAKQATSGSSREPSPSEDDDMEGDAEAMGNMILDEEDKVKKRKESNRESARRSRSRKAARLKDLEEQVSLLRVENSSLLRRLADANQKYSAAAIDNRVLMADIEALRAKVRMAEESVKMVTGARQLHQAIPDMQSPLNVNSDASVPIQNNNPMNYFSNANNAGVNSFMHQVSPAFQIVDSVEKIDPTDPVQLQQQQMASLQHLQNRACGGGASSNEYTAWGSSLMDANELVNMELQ
The experiment in a line: protein-binding microarray (RPBM); PBS, 2% BSA, 51.3 ng/ul salmon testes DNA, 50 uM zinc acetate, 200 nM TF, 25 C, 1 h; high values mean tight binding. As to conditions: protein: recombinant; tags: N-terminal polyhistidine and DsRed monomer fusion (pET32a); chain copies: 2; label: CyDye5-dUTP incorporated in the synthesized complementary strand; 3' TTTTT single-stranded linker to array surface; dsDNA, one strand shown. The method in brief:
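An Axon 4000B scanner gave the binding signal as per-feature fluorescence intensity in arbitrary units. This followed washing of a custom Agilent array that had been incubated for 1 h at 25 °C with 200 nM protein in PBS, 2% BSA, salmon testes DNA and 50 µM zinc acetate. The proteins were transcription factors fused at the N-terminus to polyhistidine and DsRed, expressed in E. coli BL21-CodonPlus and purified on Ni–NTA.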
In the case of “TAGACTAGTAGCTGGTGGGCCCCATGACACAGTCACTTGGCGGAGTCACCTAGTGCAG”, the binding signal was 4760 fluorescence intensity (a.u.).
For “ACCTCCTCCACCTCCATGGCTCACCACCACGTACAGCAAACGGAGTCACCTAGTGCAG”, the binding signal was 3360 fluorescence intensity (a.u.).
Take “TTCCTCATTCTTTCCCTGCTGCAGTTCGGCCACGTCTACGCGGAGTCACCTAGTGCAG”: the binding signal is 5650 fluorescence intensity (a.u.).
With “TTGCCTGTTCAAATTTTCTTTGTTGTGTCAGACGTATGCTCGGAGTCACCTAGTGCAG” the figure was 3180 fluorescence intensity (a.u.); with “TTCTGGATGCAGCTATCTTCCTACTGAAAGAAATCGGCGCCGGAGTCACCTAGTGCAG”, 29000 fluorescence intensity (a.u.).
As to “TGTGGACAATGCTAGAAAGTCTTACATTGTCAAACGGATGCGGAGTCACCTAGTGCAG”, the binding signal is 39500 fluorescence intensity (a.u.).
In the case of “AGCCACGTAGGTGCCACATCATTTAAAACCGGGCACAATACGGAGTCACCTAGTGCAG”, the binding signal was 10600 fluorescence intensity (a.u.).
With “ATTGGTTAGGTCTTTTATGGTGGAATCAGTCCACTTAGGTCGGAGTCACCTAGTGCAG”, the binding signal is 21000 fluorescence intensity (a.u.).
“TTCTAGTGGTGTGTAATTAAGGACCATGTTGCGCAATACACGGAGTCACCTAGTGCAG”: the binding signal was 4380 fluorescence intensity (a.u.).
Turning to “CAAATCATGACGCAATTAAGTTTAAAAGATTTGTCTCATACGGAGTCACCTAGTGCAG”, the binding signal is 3910 fluorescence intensity (a.u.).
Regarding “CTCGGACGCTGAAATCCATCGTGGAGTTGAGGCCGCCGAACGGAGTCACCTAGTGCAG”, the binding signal was 3790 fluorescence intensity (a.u.).
As to “GATGGGCCCACCCGTCATCCACACGAGGGCCACGCCTTGCCGGAGTCACCTAGTGCAG”, the binding signal was 3380 fluorescence intensity (a.u.).
Consider “ACCGTGTACACTAACCGATGATGCACAGCATGTACACATGCGGAGTCACCTAGTGCAG”, for which the binding signal was 4370 fluorescence intensity (a.u.).
For “ACCCTGGTAGTGGTAGGCCCCACACCGTCAGCGGCACACGCGGAGTCACCTAGTGCAG”, the binding signal is 4710 fluorescence intensity (a.u.).
As for “TTGTGTGAGGTCCACGTGAGTCCTACTTCCCACATCAGTTCGGAGTCACCTAGTGCAG”, the binding signal is 7080 fluorescence intensity (a.u.).
For “CCGACTGAGTTCCTCGCATCGCGTCACATCGTGTTCATATCGGAGTCACCTAGTGCAG”, the binding signal is 3650 fluorescence intensity (a.u.).
On to “TCCTCTCCCACGAAAGATCCGCACCAGCTTTGTCAGCTTTCGGAGTCACCTAGTGCAG”, for which the binding signal was 3180 fluorescence intensity (a.u.).
“CAGATATTATATTACGTAACATCTTCGTCAAGCTTACAATCGGAGTCACCTAGTGCAG”: the binding signal is 3850 fluorescence intensity (a.u.).
The same measure for “GAATTCGATACCACGTAGCCAAGGTTCTCCTAGCTATCGCCGGAGTCACCTAGTGCAG”: 3870 fluorescence intensity (a.u.); for “GAGGAGGAGAGGACACGTGTACTTACGGTGGCAGAGCCGCCGGAGTCACCTAGTGCAG”: 18700 fluorescence intensity (a.u.); for “CCTGCCTGCCTGCAGAGACTGCTTGAACGGTTTGTCGTTACGGAGTCACCTAGTGCAG”: 4000 fluorescence intensity (a.u.).
“TTCAAATTCAACGTCAACTTTTCCACATGTACAGTTCATGCGGAGTCACCTAGTGCAG”: the binding signal was 3820 fluorescence intensity (a.u.).
“TAGAGCCAGAGCTAGAGCATCACAGAGAAAGAAGAACTTGCGGAGTCACCTAGTGCAG”: the binding signal is 28200 fluorescence intensity (a.u.).
With “GACGGGACGGGGCGAGGCGTGTGACAGGCCGCCTGCTGCCCGGAGTCACCTAGTGCAG”, the binding signal is 26800 fluorescence intensity (a.u.).
Regarding “AAAATTACCCACCATGCCACCCCACTCCCTCTTTAGACTGCGGAGTCACCTAGTGCAG”, the binding signal is 4570 fluorescence intensity (a.u.).
Take “GAAGCAGGGATTTGAAACCACTCAAATCCACCACTGCAAACGGAGTCACCTAGTGCAG”: the binding signal is 3420 fluorescence intensity (a.u.).
Take “ACTGAACGCAATGAACTAATGATGTTTTGCCATCGTATTGCGGAGTCACCTAGTGCAG”: the binding signal is 3780 fluorescence intensity (a.u.).
With “AGCATAGGGTATCACTCATGGCGGCCAAATTCCCACCGAACGGAGTCACCTAGTGCAG”, the binding signal was 3220 fluorescence intensity (a.u.).
For the sequence “CATGCACTGCCAGCACTCCTAATTTCGGATGCTTGTTGTCCGGAGTCACCTAGTGCAG”, the binding signal was 3560 fluorescence intensity (a.u.).
The same measure for “CACTTCACCCACGTTGAGCTCCACGTCGCCGGCTGCTGCCCGGAGTCACCTAGTGCAG”: 7910 fluorescence intensity (a.u.).
Take “AATGACTGCTCCATTCCTGATCTGAATCAGTGGTTCCAACCGGAGTCACCTAGTGCAG”: the binding signal was 20200 fluorescence intensity (a.u.).
On to “ACCCACCCACCCCTCGACTTTCACATAATTACATCCAGGTCGGAGTCACCTAGTGCAG”, for which the binding signal is 30700 fluorescence intensity (a.u.).
On to “TTCGAAGTGGAGTAGAATCACAGTTCACAGAGCTAAGCTACGGAGTCACCTAGTGCAG”, for which the binding signal is 17700 fluorescence intensity (a.u.).
The same measure for “ATTTTGTTTTCAATTTTCTGATCATGATCTGGCTGTTTTGCGGAGTCACCTAGTGCAG”: 3470 fluorescence intensity (a.u.).
In the case of “CTATTCTCTGCGCCACATCATCGTATGAGTCTACACGGTACGGAGTCACCTAGTGCAG”, the binding signal was 15200 fluorescence intensity (a.u.).
Turning to “GGTTGTTCATTTGTGCTACTTGTGACTGTGTTACATCTGTCGGAGTCACCTAGTGCAG”, the binding signal is 4120 fluorescence intensity (a.u.).
With “GCCTGAGCTGCCACAGCCATCCACGTAGCTACTTCTACTGCGGAGTCACCTAGTGCAG”, the binding signal was 5210 fluorescence intensity (a.u.).
On to “TCGTCGATCCCCAATCTGACTCGGGTCTCTCCTTTGGTGTCGGAGTCACCTAGTGCAG”, for which the binding signal is 3500 fluorescence intensity (a.u.).
Take “CGGCGCACGAGTCGGCTTCCTCCAGTTTCACACTGCTTCGCGGAGTCACCTAGTGCAG”: the binding signal was 3480 fluorescence intensity (a.u.).
With “GTGTATATATAGAGTATACATTATAGTGACTCTGCTTAAGCGGAGTCACCTAGTGCAG” the figure was 3960 fluorescence intensity (a.u.); with “AGCCGGTGCGTGCGTGGGCGCGTGACGCGGGACTCCGGGCCGGAGTCACCTAGTGCAG”, 3520 fluorescence intensity (a.u.); with “TCGCCCGCACGTGGCCCTCCTCTCCTCCCTCCCACCTCGTCGGAGTCACCTAGTGCAG”, 3380 fluorescence intensity (a.u.).

These data come from publication PMC7819943, “Rice protein-binding microarrays: a tool to detect cis-acting elements near promoter regions in rice”.
